Source: patent US20250035633A1
These are yes or no findings as the source states them, for the method shown. Some results given as binding are weak or reduced against the parent protein; the word gives no strength.

T1: recombinant CDH17-hFc (human) (UniProt Q12864)
T1 sequence (looked up): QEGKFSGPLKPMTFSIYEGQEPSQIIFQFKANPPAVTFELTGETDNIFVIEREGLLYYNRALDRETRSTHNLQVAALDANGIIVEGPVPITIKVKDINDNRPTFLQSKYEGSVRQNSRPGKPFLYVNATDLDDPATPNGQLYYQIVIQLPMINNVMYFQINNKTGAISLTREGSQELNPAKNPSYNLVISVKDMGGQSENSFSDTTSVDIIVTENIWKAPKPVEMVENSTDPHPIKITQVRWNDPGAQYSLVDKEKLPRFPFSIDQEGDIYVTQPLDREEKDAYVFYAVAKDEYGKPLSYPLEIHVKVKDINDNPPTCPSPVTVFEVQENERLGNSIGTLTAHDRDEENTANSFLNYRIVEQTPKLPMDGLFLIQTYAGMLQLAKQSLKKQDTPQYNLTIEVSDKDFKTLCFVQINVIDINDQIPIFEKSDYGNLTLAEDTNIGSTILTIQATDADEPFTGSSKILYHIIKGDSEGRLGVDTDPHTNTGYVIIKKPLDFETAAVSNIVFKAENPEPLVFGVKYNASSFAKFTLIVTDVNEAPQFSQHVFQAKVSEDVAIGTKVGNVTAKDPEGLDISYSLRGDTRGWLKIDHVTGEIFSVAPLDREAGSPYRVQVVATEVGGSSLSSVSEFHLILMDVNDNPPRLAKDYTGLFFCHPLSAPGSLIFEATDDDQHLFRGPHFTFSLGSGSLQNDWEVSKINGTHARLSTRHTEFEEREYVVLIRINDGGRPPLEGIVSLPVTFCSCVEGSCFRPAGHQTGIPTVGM


Target: T1, recombinant CDH17-hFc (human)
Experiment: domain-mapping ELISA; affinity by OCTET and ELISA (FIG. 6b, 6c)

Row | Binder | binding
1 | mLic3 (antibody, V domains shown) VH: EVQLVESGGGLVKPGGSLKLSCAASGFSFSDYYMYWVRQAPEKRLEWVASISFDGTYTYYTDRVKGRFTISRDNAKNNLYLQMSSLKSEDTAMYYCARDRPAWFPYWGQGTLVTVSA VL: DVLMTQIPLSLTVSLGDQASISCRSSQSIVHSNGNTYLEWYLQRPGQSPKLLIYKVSNRFSGVPDRFSGSGSGTDFTLKISRVEAEDLGVYYCFQGSHVPLTFGAGTKLELK | binds
2 | m7C5 (antibody, V domains shown) VH: QVQLQQSGAELARPGASVKLSCKASGYTFTSYGLSWVKQRTGQGLEWIGEIFPRSGNSYYNEKFKGKAALTADKSSSTAYMQLSSLTSEDSAVYFCARHYYSSLYYAMDYWGQGTSVTVSS VL: DIQVTQSPASLSASVGESVSITCGTNENLYGALNWYQRKQGKSPQLLIYGATNLADGMSSRFSGSGSGRQYSLKISSLHPDDVATYYCQNVLSTPRTFGGGTKLEIK | binds
